Test system: PCS slices of SSc skin
Experiment: Precision cut skin (PCS) slices of SSc skin, ex vivo, RNASeq and immunofluorescence
Format: cell-based, human

| SMILES | immune cell types whose related terms were modulated (30 μM) | immune cell types whose related terms were modulated (1 μM) |
| --- | --- | --- |
| C[C@@H]1CN(C(=N)N)N=C1c1ccc(F)cc1O [AM1476] | myeloid leukocytes, granulocytes, and mononuclear cells | – |
| COc1c(C)c2c(c(O)c1C/C=C(\C)CCC(=O)OCCN1CCOCC1)C(=O)OC2 [MMF, mycophenolate mofetil, reference compound] | – | T cells, natural killer cells, myeloid leukocytes, and neutrophils |

— paper PMC12311259, “Antifibrotic effects of specific targeting of the 5‐hydroxytryptamine 2B receptor (5‐HT2BR) in murine models and ex vivo models of scleroderma skin” (Arthritis & Rheumatology (Hoboken, N.j.), 2025)
